# Results from patent publication EP4085921A1 (priority 2021, dated 2022).
# Not every detail of the peptide structures is certain; ends, links or a residue may be inferred.
# Key:
# SARS-CoV-2 infection = type: in vivo, human
# [1] = human, in vivo
structure (smiles),measurement,setting,value
"CC[C@H](C)[C@H](NC(=O)[C@H](Cc1ccc(O)cc1)NC(=O)[C@@H](NC(=O)[C@H](CCCNC(=N)N)NC(=O)[C@@H](N)CC(=O)O)C(C)C)C(=O)N[C@@H](Cc1c[nH]cn1)C(=O)N1CCC[C@H]1C(=O)O [Angiotensin-(1-7), Asp-Arg-Val-Tyr-Ile-His-Pro]",oxygen free days by day 28 of the study,"SARS-CoV-2 infection; SARS-CoV-2 ICU patients with severe pneumonia, i.v. 5 mcg/kg/24h, after 24 hours 10 mcg/kg/24h, max 7 days, average (SD)",18 (SD +/- 8.9) days
same,mortality rate of SARS-CoV-2 patients admitted to ICU,"SARS-CoV-2 infection; i.v. 5 mcg/kg/24h, after 24 hours 10 mcg/kg/24h, max 7 days, 7/30",23.3%
same,"mortality rate compared to SARS-CoV-2 infected, not Angiotensin-(1-7) treated ICU patients",SARS-CoV-2 infection; qualitative comparison,significantly lower
same,averaged C-reactive protein (CRP) blood concentrations (overall inflammation),[1],decreased during the infusion
same,averaged creatinine levels,[1],reduced
